Data source: PubChem BioAssay AID652243 (Drosophila RNAi Screening Center, 2013)
The deposit covers about 24,000 reagents; this is an unselected part of those with a known target gene and a result. Over the whole deposit, 246 (1%) are marked active. 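Plates not normalised; calls are printed but the firefly/Renilla ratio behind them is not deposited; fold cut for lowering reported inconsistently.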 The raw values are shown without normalisation. The numbers tell different reagents against one gene apart. Names joined by + are all predicted targets of the reagent. Reagent sequences are not shown. Not stated in the record: the amount of reagent.

Test: 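Fly genes required for human androgen receptor driven transcription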 (primary screen)
System: Drosophila S2R+ cells
Knock-down reagent: long dsRNA against Drosophila genes
Time to read-out: 72 h (48 h, then 24 h hormone)
Challenge: synthetic androgen R1881 at 10 nM for 24 h
Measurement: 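Per-well raw luminescence of the androgen-driven firefly reporter and of the Renilla control, two replicates each, without normalisation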
Direction: firefly reporter light: higher = more light from androgen-responsive reporter; Renilla control light: higher = more constitutive control signal (cell number, transfection)
Active means: 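Across duplicate plates, a knock-down whose log firefly/Renilla ratio shifted a set fold down or up from the GFP/LacZ control mean was a hit; the downward cut appears as both 1.5 and 3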
Meaning of the calls: active = hit: reporter lowered or raised; inactive = no hit

| target | dsRNA no. | firefly reporter light, replicate 1 | firefly reporter light, replicate 2 | Renilla control light, replicate 1 | Renilla control light, replicate 2 | Call |
| --- | --- | --- | --- | --- | --- | --- |
| beat-Va (beaten path Va) | 1 | 2.73e5 | 2.26e5 | 2.27e6 | 2.08e6 | inactive |
| BCAS2 | 1 | 83115 | 53927 | 5.35e5 | 4.82e5 | inactive |
| BCAS2 | 2 | 3.46e5 | 4.32e5 | 1.94e6 | 1.66e6 | inactive |
| Obp56e (Odorant-binding protein 56e) | 1 | 77359 | 1.18e5 | 1.04e6 | 7.44e5 | inactive |
| CG15625 | 1 | 1.11e5 | 56835 | 1.40e6 | 5.78e5 | inactive |
| CG15625 | 2 | 4.00e5 | 4.90e5 | 1.71e6 | 1.45e6 | inactive |
| CG15625 | 3 | 6.84e5 | 6.21e5 | 1.23e6 | 1.42e6 | inactive |
| Or85f (Odorant receptor 85f) | 1 | 1.32e5 | 1.07e5 | 2.22e6 | 2.01e6 | inactive |
| CG43376 | 1 | 2.91e5 | 2.88e5 | 2.08e6 | 1.83e6 | inactive |
| U3-55K (U3 small nuclear riboprotein factor 55K) | 1 | 64918 | 1.35e5 | 1.49e6 | 1.49e6 | inactive |
| U3-55K (U3 small nuclear riboprotein factor 55K) | 2 | 4.63e5 | 3.61e5 | 1.23e6 | 1.40e6 | inactive |
| Ugalt (UDP-galactose transporter) | 1 | 1.43e5 | 2.58e5 | 2.49e6 | 2.79e6 | inactive |
| RpS17 (Ribosomal protein S17) | 1 | 3.97e5 | 3.95e5 | 2.65e6 | 2.60e6 | inactive |
| RpS17 (Ribosomal protein S17) | 2 | 3.35e5 | 3.74e5 | 1.02e6 | 1.02e6 | inactive |
| CG4338 | 1 | 1.26e5 | 66338 | 8.10e5 | 4.63e5 | inactive |
| MESK2 + CG10494 | 1 | 66144 | 90610 | 1.26e6 | 1.21e6 | active |
| schuy (schumacher-levy) | 1 | 1.80e5 | 1.54e5 | 1.95e6 | 1.92e6 | inactive |
| schuy (schumacher-levy) | 2 | 4.19e5 | 5.03e5 | 1.25e6 | 8.48e5 | inactive |
| ftz (fushi tarazu) | 1 | 64154 | 65548 | 1.15e6 | 1.15e6 | inactive |
| ftz (fushi tarazu) | 2 | 3.01e5 | 2.84e5 | 1.09e6 | 9.37e5 | inactive |
| fwe (flower) | 1 | 1.43e5 | 70898 | 9.82e5 | 7.78e5 | inactive |
| fwe (flower) | 2 | 1.32e5 | 1.61e5 | 2.11e6 | 2.20e6 | inactive |
| CG12672 | 1 | 1.14e5 | 1.32e5 | 1.45e6 | 2.04e6 | inactive |
| CG12672 | 2 | 8.83e5 | 8.95e5 | 1.06e6 | 1.30e6 | inactive |

Targets listed so far whose gene name begins with S or s (2):
| target | dsRNA no. | firefly reporter light, replicate 1 | firefly reporter light, replicate 2 | Renilla control light, replicate 1 | Renilla control light, replicate 2 | Call |
| --- | --- | --- | --- | --- | --- | --- |
| schuy (schumacher-levy) | 1 | 1.80e5 | 1.54e5 | 1.95e6 | 1.92e6 | inactive |
| schuy (schumacher-levy) | 2 | 4.19e5 | 5.03e5 | 1.25e6 | 8.48e5 | inactive |
